Assay results as given in the supplement of paper PMC10849652.
Some of the results follow.

Chains of the proteins cited; added tags and fusions are not shown. Lines headed by an entry give the natural chain unless they say otherwise; changes in a name come on top.
UniProt Q9GZZ9, whole entry, looked up: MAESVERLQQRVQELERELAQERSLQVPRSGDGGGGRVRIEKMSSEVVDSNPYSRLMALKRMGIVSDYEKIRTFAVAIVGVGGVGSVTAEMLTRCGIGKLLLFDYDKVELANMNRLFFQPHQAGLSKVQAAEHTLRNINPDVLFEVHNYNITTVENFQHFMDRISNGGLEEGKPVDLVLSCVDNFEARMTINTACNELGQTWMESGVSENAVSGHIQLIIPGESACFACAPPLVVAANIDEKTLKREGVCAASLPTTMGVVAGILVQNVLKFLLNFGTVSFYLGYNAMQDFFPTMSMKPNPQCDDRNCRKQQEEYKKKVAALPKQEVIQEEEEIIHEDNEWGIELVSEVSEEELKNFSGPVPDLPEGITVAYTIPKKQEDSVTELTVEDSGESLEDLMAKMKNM
UniProt Q9NUQ3: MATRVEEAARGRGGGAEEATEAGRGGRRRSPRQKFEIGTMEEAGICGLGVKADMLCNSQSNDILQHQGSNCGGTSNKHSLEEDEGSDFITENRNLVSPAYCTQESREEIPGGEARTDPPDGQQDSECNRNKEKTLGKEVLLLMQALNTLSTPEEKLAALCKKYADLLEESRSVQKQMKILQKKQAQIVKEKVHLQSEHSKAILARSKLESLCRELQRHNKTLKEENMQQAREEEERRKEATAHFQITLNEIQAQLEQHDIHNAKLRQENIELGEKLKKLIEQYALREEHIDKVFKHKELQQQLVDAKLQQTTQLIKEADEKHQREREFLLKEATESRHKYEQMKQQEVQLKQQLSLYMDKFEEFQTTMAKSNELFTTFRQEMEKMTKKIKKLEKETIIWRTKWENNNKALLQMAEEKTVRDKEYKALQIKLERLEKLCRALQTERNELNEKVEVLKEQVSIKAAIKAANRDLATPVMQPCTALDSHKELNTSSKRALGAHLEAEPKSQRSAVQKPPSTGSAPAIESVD
UniProt Q9UJT1: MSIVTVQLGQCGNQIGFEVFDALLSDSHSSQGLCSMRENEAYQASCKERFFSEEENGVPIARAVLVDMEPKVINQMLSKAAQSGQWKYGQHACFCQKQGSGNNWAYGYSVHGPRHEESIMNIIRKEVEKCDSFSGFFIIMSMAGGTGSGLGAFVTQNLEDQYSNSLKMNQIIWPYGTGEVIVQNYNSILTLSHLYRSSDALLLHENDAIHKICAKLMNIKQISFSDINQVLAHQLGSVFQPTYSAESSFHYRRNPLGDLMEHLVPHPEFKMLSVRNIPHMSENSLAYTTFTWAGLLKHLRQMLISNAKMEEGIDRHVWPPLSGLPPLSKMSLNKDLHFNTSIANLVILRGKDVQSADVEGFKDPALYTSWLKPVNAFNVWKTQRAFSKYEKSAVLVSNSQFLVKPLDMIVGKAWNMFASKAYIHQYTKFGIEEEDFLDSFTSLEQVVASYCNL
UniProt Q3KQV9: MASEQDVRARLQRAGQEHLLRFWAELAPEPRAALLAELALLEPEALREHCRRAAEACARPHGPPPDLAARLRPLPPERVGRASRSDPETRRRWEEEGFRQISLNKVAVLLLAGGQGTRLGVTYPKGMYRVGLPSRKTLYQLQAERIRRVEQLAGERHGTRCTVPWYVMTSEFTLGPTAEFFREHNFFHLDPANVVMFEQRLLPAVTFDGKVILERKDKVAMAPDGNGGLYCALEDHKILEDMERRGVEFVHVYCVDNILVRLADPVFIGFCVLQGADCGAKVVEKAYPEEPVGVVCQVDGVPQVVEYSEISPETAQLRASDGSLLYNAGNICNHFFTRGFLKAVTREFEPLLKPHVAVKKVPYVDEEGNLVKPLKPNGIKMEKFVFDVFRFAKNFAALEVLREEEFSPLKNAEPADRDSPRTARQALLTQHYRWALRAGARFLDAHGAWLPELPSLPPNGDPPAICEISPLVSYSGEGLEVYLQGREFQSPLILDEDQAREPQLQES
UniProt Q96ET8: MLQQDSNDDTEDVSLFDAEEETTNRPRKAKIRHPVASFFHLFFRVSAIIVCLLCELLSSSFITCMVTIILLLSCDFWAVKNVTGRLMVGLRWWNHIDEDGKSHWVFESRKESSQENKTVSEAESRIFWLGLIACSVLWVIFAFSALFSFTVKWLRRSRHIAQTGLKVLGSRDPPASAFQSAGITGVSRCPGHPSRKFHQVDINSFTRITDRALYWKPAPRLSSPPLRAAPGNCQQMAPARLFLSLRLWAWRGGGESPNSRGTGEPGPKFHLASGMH
UniProt P41226: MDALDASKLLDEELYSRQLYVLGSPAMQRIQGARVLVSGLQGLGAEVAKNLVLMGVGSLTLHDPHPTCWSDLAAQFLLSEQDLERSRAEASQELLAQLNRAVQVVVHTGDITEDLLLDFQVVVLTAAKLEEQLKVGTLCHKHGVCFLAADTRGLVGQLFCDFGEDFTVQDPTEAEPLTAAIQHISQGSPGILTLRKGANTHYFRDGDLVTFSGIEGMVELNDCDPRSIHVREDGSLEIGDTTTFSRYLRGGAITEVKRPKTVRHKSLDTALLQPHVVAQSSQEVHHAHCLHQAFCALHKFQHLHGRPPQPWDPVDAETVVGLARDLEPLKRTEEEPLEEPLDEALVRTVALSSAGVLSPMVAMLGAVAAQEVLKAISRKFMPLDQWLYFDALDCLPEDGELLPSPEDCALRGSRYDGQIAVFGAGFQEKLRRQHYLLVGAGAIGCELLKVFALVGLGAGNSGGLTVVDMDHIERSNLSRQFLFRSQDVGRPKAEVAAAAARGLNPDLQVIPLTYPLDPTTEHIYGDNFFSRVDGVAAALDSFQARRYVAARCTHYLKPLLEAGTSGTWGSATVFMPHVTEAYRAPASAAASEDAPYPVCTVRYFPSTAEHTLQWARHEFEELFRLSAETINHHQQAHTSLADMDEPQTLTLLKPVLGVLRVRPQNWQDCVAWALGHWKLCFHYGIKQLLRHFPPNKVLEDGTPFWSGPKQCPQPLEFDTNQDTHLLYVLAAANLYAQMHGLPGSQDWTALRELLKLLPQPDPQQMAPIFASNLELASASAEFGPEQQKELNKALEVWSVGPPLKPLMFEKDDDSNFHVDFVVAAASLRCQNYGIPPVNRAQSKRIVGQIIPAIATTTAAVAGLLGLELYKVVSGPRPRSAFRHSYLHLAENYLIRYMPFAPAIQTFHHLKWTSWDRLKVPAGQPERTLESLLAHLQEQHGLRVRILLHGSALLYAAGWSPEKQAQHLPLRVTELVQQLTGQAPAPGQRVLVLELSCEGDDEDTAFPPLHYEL
UniProt Q9NPG3, whole entry, looked up: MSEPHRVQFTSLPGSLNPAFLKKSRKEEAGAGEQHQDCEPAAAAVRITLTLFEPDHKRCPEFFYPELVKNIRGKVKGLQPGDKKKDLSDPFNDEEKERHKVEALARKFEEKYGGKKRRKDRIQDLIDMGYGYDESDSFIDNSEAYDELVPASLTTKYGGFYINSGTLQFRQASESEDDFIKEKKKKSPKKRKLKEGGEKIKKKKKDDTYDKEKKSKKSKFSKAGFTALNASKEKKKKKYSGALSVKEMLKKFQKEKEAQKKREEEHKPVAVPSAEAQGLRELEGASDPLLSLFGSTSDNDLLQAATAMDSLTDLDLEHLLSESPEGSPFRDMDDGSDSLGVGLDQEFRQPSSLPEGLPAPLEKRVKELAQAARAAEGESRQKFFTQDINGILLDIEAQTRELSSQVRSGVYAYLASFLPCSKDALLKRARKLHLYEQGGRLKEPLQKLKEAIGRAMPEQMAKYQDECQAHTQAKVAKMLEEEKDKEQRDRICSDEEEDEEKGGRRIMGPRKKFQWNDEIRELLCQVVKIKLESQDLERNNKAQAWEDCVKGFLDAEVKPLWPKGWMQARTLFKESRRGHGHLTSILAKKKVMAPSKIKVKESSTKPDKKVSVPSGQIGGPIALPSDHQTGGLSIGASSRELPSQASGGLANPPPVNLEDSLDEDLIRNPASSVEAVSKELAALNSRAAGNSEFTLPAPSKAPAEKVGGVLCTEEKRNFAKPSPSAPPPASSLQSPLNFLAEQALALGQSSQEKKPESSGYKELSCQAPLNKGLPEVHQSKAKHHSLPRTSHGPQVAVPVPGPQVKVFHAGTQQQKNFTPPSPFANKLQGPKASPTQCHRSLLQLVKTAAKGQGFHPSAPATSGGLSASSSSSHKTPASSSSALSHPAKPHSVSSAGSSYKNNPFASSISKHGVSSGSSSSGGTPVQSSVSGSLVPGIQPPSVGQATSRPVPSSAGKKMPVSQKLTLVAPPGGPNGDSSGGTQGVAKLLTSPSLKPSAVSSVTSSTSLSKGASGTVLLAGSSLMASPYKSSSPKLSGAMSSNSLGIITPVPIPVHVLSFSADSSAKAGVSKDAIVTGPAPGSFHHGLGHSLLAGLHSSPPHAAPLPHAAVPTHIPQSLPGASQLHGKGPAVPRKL
UniProt Q86VQ3: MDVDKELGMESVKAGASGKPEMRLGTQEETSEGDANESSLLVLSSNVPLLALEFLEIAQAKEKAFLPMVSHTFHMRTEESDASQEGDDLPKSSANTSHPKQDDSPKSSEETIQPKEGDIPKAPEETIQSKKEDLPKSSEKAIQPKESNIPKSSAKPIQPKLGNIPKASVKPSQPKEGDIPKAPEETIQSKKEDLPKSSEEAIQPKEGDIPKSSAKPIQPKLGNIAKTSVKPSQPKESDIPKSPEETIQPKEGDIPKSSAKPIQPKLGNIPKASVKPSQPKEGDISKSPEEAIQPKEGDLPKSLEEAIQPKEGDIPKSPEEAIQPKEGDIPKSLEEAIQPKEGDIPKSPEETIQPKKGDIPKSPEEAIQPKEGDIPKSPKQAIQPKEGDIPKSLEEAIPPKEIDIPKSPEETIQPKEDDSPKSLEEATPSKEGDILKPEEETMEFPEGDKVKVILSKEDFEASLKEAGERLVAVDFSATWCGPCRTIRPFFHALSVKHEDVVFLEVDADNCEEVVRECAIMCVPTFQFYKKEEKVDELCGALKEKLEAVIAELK
UniProt O75896: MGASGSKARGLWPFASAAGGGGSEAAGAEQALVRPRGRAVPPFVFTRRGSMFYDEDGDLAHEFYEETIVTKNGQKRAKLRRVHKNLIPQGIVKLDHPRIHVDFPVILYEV
UniProt Q6PKC3: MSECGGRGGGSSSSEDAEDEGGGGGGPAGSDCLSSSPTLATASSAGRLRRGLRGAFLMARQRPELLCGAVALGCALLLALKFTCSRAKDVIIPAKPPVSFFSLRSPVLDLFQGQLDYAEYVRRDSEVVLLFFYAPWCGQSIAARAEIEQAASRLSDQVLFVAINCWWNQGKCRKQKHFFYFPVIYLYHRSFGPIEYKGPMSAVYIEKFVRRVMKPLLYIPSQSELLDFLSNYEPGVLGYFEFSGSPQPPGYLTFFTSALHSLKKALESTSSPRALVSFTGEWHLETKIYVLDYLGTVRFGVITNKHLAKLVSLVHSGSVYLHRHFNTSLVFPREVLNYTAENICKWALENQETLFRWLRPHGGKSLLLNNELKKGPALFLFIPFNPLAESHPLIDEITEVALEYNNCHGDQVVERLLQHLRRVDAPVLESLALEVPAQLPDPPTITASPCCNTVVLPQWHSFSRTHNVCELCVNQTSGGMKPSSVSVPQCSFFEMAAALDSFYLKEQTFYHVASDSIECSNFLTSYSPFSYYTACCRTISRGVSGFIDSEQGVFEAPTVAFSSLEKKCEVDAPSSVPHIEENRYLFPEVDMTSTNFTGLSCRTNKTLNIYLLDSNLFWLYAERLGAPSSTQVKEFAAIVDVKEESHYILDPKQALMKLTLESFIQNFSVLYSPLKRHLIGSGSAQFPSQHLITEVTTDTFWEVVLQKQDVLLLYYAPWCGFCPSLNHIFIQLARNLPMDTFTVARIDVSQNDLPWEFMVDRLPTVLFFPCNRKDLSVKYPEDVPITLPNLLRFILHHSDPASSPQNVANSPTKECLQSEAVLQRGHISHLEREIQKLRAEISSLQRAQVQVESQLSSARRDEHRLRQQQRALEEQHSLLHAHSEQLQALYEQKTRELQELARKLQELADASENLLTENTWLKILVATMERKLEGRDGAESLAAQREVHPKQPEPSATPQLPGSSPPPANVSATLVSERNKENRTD
UniProt Q9UMX0, whole entry, looked up: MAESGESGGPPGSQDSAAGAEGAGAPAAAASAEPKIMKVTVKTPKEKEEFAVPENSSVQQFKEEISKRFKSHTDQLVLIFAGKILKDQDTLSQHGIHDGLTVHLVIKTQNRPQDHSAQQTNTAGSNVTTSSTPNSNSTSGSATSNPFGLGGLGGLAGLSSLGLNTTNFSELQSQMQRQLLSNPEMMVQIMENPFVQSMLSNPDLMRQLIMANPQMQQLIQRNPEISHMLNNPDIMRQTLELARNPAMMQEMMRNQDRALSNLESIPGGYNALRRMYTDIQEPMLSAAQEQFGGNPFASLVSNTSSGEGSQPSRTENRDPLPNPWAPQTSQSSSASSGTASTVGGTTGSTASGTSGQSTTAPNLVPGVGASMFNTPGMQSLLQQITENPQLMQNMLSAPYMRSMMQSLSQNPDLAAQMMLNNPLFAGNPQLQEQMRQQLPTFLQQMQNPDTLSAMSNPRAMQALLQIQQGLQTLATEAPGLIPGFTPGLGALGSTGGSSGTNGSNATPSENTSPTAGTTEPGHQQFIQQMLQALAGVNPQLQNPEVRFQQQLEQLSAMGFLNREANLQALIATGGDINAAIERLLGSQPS

Legend:
Experiment in all cases: log2 fold change, soluble protein after heating vs DMSO (PISA); higher = thermal stabilisation; K562 lysate, 10 uM; active = over 0.2 and 3.5 SD of the protein, either way, in both replicates (recomputed)
[1] = compound: C1=CC=C(C=C1)[C@H](COC2=CC3=C(C=C2)NC(=O)N3)NC(=O)C4=CC=CN(C4=O)CC5=CC(=C(C=C5)F)F
Method in brief: (§1)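 A 30 min treatment with 10 μM compound was applied to crude K562 extract at 1 mg/mL protein in PBS pH 7.4 with 1 mM MgCl2. Heating for 3 min spanned 48°C-58°C, after which aliquots were pooled, adjusted to 0.5% NP-40 at 4°C and spun at 21,000xg for 90 min. TMTpro 16plex LC-MS/MS of the supernatant, with channel sums equalised, gave values recorded as log-two fold change in thermal stability against solvent controls, from duplicates.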

[2] = compound: CC1=C(SC2=C1C(=N[C@H](C3=NN=C(N32)C)CC(=O)N)C4=CC=C(C=C4)Cl)C
Method in brief: as §1

[3] = compound: CC1=C2C(=CC=C1)N=C(N(C2=O)C3=CC=CC=C3C)CN4C=NC5=C(N=CN=C54)N
Method in brief: as §1

[4] = compound: Cc1sc2c(c1C)C(c1ccc(Cl)cc1)=N[C@@H](CC(=O)OC(C)(C)C)c1nnc(C)n1-2
Method in brief: as §1

[5] = compound: c1ccc([C@@H]2C[C@H]2NC2CCNCC2)cc1
Method in brief: as §1

Measured: log2 fold change

UBR1 (UniProt Q8IWV7)
inactive: [1] -0.032 | [2] 0.002 | [3] -0.026 | [4] 0.026 | [5] 0

UBA5 (UniProt Q9GZZ9)
inactive: [1] -0.041 | [2] 0.006 | [3] -0.003 | [4] 0.004 | [5] 0.028

UBE2Q2 (UniProt Q8WVN8)
inactive: [1] 0.026 | [2] 0.012 | [3] -0.007 | [4] 0.153 | [5] 0.117

TXLNG (UniProt Q9NUQ3)
inactive: [1] 0.007 | [2] 0.009 | [3] -0.01 | [4] 0.011 | [5] -0.008

TUBD1 (UniProt Q9UJT1)
inactive: [1] -0.114 | [2] -0.123 | [3] 0.094 | [4] -0.046 | [5] -0.035

TWSG1 (UniProt Q9GZX9)
inactive: [1] 0.063 | [2] -0.095 | [3] -0.015 | [4] 0.086 | [5] 0.075

UBE3B (UniProt Q7Z3V4)
inactive: [1] -0.085 | [2] -0.144 | [3] -0.047 | [4] -0.045 | [5] 0.078

TYRO3 (UniProt Q06418)
inactive: [1] 0.032 | [2] 0.01 | [3] 0.394 | [5] 0.13

UAP1L1 (UniProt Q3KQV9)
inactive: [1] -0.091 | [2] -0.047 | [3] -0.083 | [4] -0.073 | [5] 0.043

TYW3 (UniProt Q6IPR3)
inactive: [1] 0.082 | [2] 0.006 | [3] 0.065 | [4] -0.029 | [5] -0.067

UBR3 isoform 4 (UniProt Q6ZT12)
inactive: [1] -0.027 | [2] -0.032 | [3] 0.009 | [4] -0.016 | [5] 0.076

UBXN8 (UniProt O00124)
inactive: [4] -0.117 | [5] -0.087

UBIAD1 (UniProt Q9Y5Z9)
inactive: [3] -0.025 | [4] -0.048 | [5] 0.025

TUFT1 (UniProt Q9NNX1)
inactive: [1] 0.093 | [2] -0.04 | [5] -0.119

UBR4 isoform 4 (UniProt Q5T4S7)
inactive: [3] -0.023 | [4] -0.284

TVP23C (UniProt Q96ET8)
inactive: [5] -0.214

TUBA4A (UniProt C9JQ00)
inactive: [1] -0.111 | [2] -0.225 | [5] 0.056

UBA7 (UniProt P41226)
inactive: [5] -0.068

UBN1 (UniProt Q9NPG3)
inactive: [3] 0.03 | [4] -0.164 | [5] 0.085

UBE2O (UniProt K7ES11)
inactive: [5] 0.46

TXNDC2 (UniProt Q86VQ3)
inactive: [1] 0.021 | [2] -0.06 | [5] -0.01

TUBB2B (UniProt Q9BVA1)
inactive: [1] 0.022 | [2] 0.026 | [4] 0.122 | [5] 0.02

TUSC2 (UniProt O75896)
inactive: [1] 0.137 | [2] 0.049 | [4] -0.036 | [5] 0

TXNDC16 (UniProt Q9P2K2)
inactive: [3] 0 | [4] -0.029 | [5] 0.037

TXNRD3 (UniProt Q86VQ6)
inactive: [1] -0.069 | [2] 0.086 | [5] 0.081

TXNDC11 (UniProt Q6PKC3)
inactive: [1] 0.018 | [2] -0.021 | [4] 0.051 | [5] -0.03

Copied from the results shown (nine entries):
TUBA4A (UniProt C9JQ00)
inactive: [1] -0.111 | [2] -0.225 | [5] 0.056

UBA7 (UniProt P41226)
inactive: [5] -0.068

UBN1 (UniProt Q9NPG3)
inactive: [3] 0.03 | [4] -0.164 | [5] 0.085

UBE2O (UniProt K7ES11)
inactive: [5] 0.46

TXNDC2 (UniProt Q86VQ3)
inactive: [1] 0.021 | [2] -0.06 | [5] -0.01

TUBB2B (UniProt Q9BVA1)
inactive: [1] 0.022 | [2] 0.026 | [4] 0.122 | [5] 0.02

TUSC2 (UniProt O75896)
inactive: [1] 0.137 | [2] 0.049 | [4] -0.036 | [5] 0

TXNDC16 (UniProt Q9P2K2)
inactive: [3] 0 | [4] -0.029 | [5] 0.037

TXNRD3 (UniProt Q86VQ6)
inactive: [1] -0.069 | [2] 0.086 | [5] 0.081

Following part

TUBB4A (UniProt P04350)
inactive: [1] 0.015 | [2] -0.03 | [4] 0.044 | [5] 0.044

TUBA8 (UniProt Q9NY65)
inactive: [1] -0.104 | [2] -0.013 | [4] -0.363 | [5] -0.159

UBE2L5, A0A1B0GUS4
inactive: [5] 0.018

UBE2M (UniProt M0QX69)
inactive: [5] -0.088

UBQLN1 isoform 2 (UniProt Q9UMX0)
inactive: [3] 0.086 | [4] 0.028

U2AF1L5 (UniProt P0DN76)
inactive: [4] 0.002 | [5] -0.499

UBE2K (UniProt D6RDM7)
inactive: [3] 0.052
